# In the supplement of paper PMC10849652:
# By UniProt entry, the sequences of proteins in these tests, tags left out. Where a name states a change or a piece, a line headed by the entry shows the natural chain unless it says otherwise.
# UniProt P52333: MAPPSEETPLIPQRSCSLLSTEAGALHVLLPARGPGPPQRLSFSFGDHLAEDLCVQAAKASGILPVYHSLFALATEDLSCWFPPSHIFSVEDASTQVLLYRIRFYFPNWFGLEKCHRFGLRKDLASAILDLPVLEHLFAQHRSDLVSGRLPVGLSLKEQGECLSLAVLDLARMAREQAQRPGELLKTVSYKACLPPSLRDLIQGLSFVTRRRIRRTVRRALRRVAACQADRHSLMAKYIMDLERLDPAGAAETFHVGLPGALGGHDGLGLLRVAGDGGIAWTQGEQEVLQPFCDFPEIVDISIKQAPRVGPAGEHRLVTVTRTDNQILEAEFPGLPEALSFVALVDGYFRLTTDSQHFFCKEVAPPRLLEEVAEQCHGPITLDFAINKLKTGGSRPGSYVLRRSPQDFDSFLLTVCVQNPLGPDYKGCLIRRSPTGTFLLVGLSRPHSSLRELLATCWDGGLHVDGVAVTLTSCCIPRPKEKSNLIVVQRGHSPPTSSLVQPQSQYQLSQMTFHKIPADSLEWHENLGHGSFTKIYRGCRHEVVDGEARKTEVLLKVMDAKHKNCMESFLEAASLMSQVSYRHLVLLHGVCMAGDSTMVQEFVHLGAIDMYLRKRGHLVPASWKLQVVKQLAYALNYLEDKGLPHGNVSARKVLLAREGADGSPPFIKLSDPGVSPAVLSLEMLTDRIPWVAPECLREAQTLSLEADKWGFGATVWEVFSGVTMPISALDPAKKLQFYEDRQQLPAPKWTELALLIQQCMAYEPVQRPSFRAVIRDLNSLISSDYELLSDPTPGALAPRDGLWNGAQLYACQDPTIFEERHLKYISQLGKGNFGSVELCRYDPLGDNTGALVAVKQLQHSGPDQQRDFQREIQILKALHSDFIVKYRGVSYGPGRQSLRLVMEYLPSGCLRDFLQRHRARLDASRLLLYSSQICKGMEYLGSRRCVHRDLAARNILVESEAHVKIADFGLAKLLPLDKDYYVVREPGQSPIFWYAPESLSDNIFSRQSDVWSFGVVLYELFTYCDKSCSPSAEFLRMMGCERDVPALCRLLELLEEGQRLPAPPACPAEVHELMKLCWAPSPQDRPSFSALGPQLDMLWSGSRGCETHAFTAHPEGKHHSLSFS
# UniProt Q96EK5: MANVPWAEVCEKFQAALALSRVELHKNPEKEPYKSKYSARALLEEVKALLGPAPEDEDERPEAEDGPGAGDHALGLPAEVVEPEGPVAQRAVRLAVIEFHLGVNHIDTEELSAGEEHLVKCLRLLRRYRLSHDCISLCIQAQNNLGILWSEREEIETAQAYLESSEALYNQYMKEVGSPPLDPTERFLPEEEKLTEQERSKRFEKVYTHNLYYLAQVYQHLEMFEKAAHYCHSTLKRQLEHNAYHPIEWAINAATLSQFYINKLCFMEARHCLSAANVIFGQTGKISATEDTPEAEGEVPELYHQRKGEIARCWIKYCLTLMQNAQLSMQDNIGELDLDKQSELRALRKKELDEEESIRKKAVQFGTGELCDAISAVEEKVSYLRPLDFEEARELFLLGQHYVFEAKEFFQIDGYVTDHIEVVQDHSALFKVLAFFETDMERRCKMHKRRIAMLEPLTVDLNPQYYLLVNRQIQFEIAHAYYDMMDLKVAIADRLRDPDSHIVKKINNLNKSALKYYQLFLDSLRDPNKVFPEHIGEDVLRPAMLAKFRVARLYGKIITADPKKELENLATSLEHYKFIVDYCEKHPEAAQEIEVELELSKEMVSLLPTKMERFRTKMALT
# UniProt Q9H910: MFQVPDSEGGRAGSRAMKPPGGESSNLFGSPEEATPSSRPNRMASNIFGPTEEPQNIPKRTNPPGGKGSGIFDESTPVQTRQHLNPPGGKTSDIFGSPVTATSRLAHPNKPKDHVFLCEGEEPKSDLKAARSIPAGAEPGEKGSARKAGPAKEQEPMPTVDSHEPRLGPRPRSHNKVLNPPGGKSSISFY
# UniProt P33176: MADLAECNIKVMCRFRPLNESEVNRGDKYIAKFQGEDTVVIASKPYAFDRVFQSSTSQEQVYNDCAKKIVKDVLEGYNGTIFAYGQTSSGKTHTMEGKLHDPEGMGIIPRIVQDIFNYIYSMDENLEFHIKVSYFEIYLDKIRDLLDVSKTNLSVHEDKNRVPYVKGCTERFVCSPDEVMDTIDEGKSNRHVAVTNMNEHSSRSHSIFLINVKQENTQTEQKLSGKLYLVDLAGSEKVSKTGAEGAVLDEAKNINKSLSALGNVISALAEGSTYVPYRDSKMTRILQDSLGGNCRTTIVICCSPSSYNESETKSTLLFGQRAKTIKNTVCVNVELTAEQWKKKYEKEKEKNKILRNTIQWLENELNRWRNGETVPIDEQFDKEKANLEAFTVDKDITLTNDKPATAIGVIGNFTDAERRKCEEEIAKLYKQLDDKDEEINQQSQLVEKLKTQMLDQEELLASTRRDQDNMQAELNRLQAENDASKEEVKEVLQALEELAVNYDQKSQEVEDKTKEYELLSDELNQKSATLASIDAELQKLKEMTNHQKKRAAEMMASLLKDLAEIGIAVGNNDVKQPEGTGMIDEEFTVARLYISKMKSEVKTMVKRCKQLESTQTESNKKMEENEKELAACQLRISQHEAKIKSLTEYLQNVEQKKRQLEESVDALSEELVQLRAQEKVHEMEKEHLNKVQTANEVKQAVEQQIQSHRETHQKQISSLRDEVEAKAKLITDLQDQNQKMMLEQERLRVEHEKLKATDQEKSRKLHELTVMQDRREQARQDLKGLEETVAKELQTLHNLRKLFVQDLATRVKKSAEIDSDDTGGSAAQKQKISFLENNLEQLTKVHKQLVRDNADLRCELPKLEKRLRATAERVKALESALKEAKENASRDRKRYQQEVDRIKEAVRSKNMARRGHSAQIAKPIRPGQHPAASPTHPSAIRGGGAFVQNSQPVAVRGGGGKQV
# UniProt O15554, whole entry, looked up: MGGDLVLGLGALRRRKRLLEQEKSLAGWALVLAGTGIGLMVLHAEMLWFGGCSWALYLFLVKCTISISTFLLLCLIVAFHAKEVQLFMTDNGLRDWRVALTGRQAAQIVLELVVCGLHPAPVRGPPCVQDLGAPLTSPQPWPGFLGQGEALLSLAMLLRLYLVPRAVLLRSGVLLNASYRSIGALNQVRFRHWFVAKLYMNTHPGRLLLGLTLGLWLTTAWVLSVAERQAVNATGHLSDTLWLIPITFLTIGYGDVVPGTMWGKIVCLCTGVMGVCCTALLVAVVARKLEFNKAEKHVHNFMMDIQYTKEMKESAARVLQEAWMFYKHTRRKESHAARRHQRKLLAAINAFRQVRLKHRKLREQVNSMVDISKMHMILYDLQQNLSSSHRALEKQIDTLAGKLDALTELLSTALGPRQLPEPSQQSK
# UniProt Q8IVT5: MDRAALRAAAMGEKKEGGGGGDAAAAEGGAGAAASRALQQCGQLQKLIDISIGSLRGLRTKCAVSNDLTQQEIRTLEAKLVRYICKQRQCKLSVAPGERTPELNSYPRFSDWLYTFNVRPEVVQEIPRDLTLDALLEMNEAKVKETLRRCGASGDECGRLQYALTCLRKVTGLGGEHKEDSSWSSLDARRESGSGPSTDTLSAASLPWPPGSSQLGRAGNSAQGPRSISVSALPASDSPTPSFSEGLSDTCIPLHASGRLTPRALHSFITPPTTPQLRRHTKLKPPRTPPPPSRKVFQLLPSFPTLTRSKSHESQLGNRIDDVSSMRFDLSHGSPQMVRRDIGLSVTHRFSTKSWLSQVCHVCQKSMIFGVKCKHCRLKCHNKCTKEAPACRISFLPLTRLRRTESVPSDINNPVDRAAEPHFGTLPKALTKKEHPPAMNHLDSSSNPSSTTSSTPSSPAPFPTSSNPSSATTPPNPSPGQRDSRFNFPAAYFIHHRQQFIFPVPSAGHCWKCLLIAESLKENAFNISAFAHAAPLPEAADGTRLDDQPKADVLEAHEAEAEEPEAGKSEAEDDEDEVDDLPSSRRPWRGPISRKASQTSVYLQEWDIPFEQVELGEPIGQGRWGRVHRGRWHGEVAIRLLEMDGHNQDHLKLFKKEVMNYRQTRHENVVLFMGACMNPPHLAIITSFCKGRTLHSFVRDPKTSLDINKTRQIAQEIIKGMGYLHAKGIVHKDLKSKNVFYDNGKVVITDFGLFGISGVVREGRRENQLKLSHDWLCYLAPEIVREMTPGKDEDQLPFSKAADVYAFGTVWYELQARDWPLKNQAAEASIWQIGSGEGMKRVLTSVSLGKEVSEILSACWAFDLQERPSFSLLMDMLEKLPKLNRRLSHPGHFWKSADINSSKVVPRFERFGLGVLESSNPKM
# UniProt Q9ULH0: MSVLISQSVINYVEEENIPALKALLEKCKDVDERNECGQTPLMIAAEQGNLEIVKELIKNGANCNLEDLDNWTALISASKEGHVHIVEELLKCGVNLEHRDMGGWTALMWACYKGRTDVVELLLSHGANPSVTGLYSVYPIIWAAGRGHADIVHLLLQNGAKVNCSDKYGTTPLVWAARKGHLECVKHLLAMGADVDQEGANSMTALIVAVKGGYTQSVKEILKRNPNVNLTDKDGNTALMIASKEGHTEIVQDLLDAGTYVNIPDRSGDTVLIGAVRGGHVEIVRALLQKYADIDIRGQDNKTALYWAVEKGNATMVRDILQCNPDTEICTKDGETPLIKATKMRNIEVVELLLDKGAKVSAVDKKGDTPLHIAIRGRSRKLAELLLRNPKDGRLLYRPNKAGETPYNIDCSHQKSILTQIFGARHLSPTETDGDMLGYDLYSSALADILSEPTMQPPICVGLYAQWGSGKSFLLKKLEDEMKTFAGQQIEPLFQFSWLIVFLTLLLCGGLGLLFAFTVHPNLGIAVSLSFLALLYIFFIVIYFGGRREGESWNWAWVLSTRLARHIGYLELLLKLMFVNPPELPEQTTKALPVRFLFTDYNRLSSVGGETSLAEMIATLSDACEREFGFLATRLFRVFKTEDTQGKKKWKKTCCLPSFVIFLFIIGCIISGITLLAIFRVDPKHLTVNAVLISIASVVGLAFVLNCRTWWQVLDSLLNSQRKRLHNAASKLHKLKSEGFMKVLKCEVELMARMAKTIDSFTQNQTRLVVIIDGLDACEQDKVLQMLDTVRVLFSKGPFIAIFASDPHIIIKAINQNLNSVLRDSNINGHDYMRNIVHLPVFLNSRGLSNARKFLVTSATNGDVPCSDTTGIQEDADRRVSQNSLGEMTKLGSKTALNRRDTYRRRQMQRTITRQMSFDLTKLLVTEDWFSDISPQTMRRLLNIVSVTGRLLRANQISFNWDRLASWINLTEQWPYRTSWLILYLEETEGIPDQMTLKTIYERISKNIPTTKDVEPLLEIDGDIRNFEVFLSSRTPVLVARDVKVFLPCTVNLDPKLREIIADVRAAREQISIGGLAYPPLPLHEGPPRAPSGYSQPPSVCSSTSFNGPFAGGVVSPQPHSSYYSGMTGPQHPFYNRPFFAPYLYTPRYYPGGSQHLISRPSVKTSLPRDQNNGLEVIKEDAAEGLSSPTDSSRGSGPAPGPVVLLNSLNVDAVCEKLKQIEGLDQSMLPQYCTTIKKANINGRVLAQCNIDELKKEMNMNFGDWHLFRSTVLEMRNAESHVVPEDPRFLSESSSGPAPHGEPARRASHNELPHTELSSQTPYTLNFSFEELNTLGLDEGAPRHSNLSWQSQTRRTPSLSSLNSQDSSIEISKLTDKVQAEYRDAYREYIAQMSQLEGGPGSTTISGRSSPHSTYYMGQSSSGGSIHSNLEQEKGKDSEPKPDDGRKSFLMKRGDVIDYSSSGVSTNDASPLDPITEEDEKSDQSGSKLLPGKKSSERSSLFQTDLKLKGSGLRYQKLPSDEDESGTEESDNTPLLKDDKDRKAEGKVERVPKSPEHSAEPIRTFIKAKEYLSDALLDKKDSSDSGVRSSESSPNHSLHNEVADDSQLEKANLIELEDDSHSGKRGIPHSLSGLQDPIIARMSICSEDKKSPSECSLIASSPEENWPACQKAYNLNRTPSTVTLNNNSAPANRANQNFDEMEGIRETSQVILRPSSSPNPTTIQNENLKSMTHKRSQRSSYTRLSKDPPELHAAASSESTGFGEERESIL
# UniProt Q06136: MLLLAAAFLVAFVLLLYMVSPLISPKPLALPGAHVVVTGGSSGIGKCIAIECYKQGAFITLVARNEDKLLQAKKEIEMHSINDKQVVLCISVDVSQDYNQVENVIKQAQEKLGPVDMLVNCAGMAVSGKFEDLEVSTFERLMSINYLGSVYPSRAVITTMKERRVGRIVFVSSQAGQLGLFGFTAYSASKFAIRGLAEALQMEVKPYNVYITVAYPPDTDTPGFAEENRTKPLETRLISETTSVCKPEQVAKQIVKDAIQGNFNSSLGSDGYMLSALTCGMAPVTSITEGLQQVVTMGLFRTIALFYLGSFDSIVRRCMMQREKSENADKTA
# UniProt Q96AT1: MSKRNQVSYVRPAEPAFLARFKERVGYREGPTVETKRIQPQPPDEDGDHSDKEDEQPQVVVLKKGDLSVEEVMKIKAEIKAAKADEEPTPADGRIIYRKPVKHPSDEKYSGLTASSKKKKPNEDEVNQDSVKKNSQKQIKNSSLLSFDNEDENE
# Some of the results follow.
# Compound: CC1=C2C(=CC=C1)N=C(N(C2=O)C3=CC=CC=C3C)CN4C=NC5=C(N=CN=C54)N
# Test: log2 fold change, soluble protein after heating vs DMSO (PISA); higher = thermal stabilisation; K562 cells, 10 uM, 30 min; active = over 0.2 and 3.5 SD of the protein, either way, in both replicates (recomputed)
# In short: (§1)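 K562 cells at 2×10^6 cells/mL were treated with 10 μM compound for 30 min. Aliquots were heated for 3 min across 48°C-58°C, pooled, and extracted in PBS with 0.5% NP-40 at 4°C; soluble protein was the supernatant after 21,000xg for 90 min. Soluble protein was quantified by TMTpro 16plex LC-MS/MS with channel sums equalised, and reported as log2 fold change in thermal stability against DMSO controls, with values from duplicates.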
row,Target,log2 fold change
1,KIAA0930 isoform 2 (UniProt Q6ICG6),inactive: 0.112
2,KATNB1 (UniProt Q9BVA0),inactive: 0.025
3,KIF2C (UniProt Q99661),inactive: 0.094
4,KMT2D isoform 3 (UniProt O14686),inactive: 0.069
5,IVNS1ABP (UniProt Q9Y6Y0),inactive: 0.09
6,KATNA1 (UniProt O75449),inactive: 0.018
7,KLHDC3 (UniProt Q9BQ90),inactive: -0.066
8,JAK3 (UniProt P52333),inactive: -0.027
9,KIF11 (UniProt P52732),inactive: 0.074
10,KLHL7 (UniProt Q8IXQ5),inactive: 0.099

# Compound: Cc1sc2c(c1C)C(c1ccc(Cl)cc1)=N[C@@H](CC(=O)OC(C)(C)C)c1nnc(C)n1-2
# Test: as above
# In short: as §1
row,Target,log2 fold change
1,KEAP1 (UniProt Q14145),inactive: 0.021
2,KPNA1 (UniProt P52294),inactive: -0.003
3,KIFBP (UniProt Q96EK5),inactive: -0.058
4,KIAA0754 (UniProt O94854),inactive: 0.068
5,KLHDC8B (UniProt Q8IXV7),inactive: 0.056
6,KHK isoform 2 (UniProt P50053),inactive: -0.04
7,KNTC1 (UniProt P50748),inactive: -0.011
8,JAG2 (UniProt Q9Y219),inactive: 0.064
9,JPT2 isoform 3 (UniProt Q9H910),inactive: 0.025
10,KIF5B (UniProt P33176),inactive: 0.001
11,KCTD15 (UniProt Q96SI1),inactive: 0.015
12,KCNN4 (UniProt O15554),inactive: 0.061
13,KPNA2 (UniProt P52292),inactive: 0.167
14,KCTD5 (UniProt Q9NXV2),inactive: -0.023
15,KSR1 (UniProt Q8IVT5),inactive: 0.044
16,KIDINS220 (UniProt Q9ULH0),inactive: 0.001
17,KCT2 (UniProt Q8NC54),inactive: -0.014

row,Target,log2 fold change
1,KCTD3 (UniProt Q9Y597),inactive: 0.091
2,KIF13A (UniProt Q9H1H9),inactive: -0.059
3,KDSR (UniProt Q06136),inactive: -0.042
4,JUN (UniProt P05412),inactive: -0.035
5,JUND (UniProt P17535),inactive: -0.013
6,IWS1 (UniProt Q96ST2),inactive: 0.045
7,KIAA1143 (UniProt Q96AT1),inactive: 0.004
8,KATNB1 (UniProt Q9BVA0),inactive: 0.06
9,KIF2C (UniProt Q99661),inactive: 0.002
10,KMT2D isoform 3 (UniProt O14686),inactive: -0.013
11,IVNS1ABP (UniProt Q9Y6Y0),inactive: 0.123
12,KATNA1 (UniProt O75449),inactive: 0.071
13,KIF13B (UniProt Q9NQT8),inactive: -0.113
14,KLHDC3 (UniProt Q9BQ90),inactive: -0.039
15,JAK3 (UniProt P52333),inactive: 0.009
16,KIF11 (UniProt P52732),inactive: 0.092
